Data reported in paper PMC3781304 (American Journal of Cardiovascular Drugs, 2013).
“Also recorded” adds a separate entry of the source. Read-outs that look alike come from different tables or passages of the source.

Tests used:
[1] = Atorvastatin drug-drug interaction study: edoxaban pharmacokinetics
[2] = Amiodarone drug-drug interaction study: edoxaban pharmacokinetics

Compound | Effect of coadministration on edoxaban exposure/PK (in words) [1] | Effect of coadministration on edoxaban exposure/PK (in words) ([1]; listed as atorvastatin) | Effect of coadministration on edoxaban exposure (in words) [2]
CC(C)c1c(C(=O)Nc2ccccc2)c(-c2ccccc2)c(-c2ccc(F)cc2)n1CC[C@@H](O)C[C@@H](O)CC(=O)O [Atorvastatin, atorvastatin] | did not significantly affect exposure | minimal effects; also recorded: relatively minor effects | 
CCCCc1oc2ccccc2c1C(=O)c1cc(I)c(OCCN(CC)CC)c(I)c1 [Amiodarone, amiodarone] |  |  | Modest/minimal effects; also recorded: did not significantly affect exposure
